# Source: ChEMBL document CHEMBL4303122, “Identification of potential treatments for COVID-19 through artificial intelligence-enabled phenomic analysis of human cells infected with SARS-CoV-2” (2020)
# The full ranking holds about 1,600 compounds; the median of “Hit score” is about 0.13, and the highest 2% start at about 0.46. This is one part of the list.
# System: SARS-CoV-2
# Assay: Antiviral activity against SARS-CoV-2 (USA-WA1/2020 strain) measured by imaging in HRCE cells at MOI 0.4 after 96 hrs (reported as hit score from 0-1 for on-disease vs off-disease activity: scores >0.6 considered hits)
# Format: functional, Homo sapiens
row,Structure (SMILES),Hit score
1,CC(C)NC1CCn2c(=O)[nH]c3cccc(c32)C1O (centres undefined) [ZILPATEROL],-0.2417
2,NC(=O)c1ncn([C@@H]2O[C@H](CO)[C@@H](O)[C@H]2O)n1 [RIBAVIRIN],0.2922
3,CNS(=O)(=O)Cc1ccc2[nH]cc(CCN(C)C)c2c1,0.2609
4,O=C(CCCl)NCc1ccccc1 [BECLAMIDE],0.1071
5,COc1ccc(-c2nc3cc(C4=NNC(=O)CC4C)ccc3[nH]2)cc1 (centres undefined) [PIMOBENDAN],0.05674
6,CCOc1ccc(CC2=NCCc3cc(OCC)c(OCC)cc32)cc1OCC,0.1332
7,COc1cc(C(=O)NS(=O)(=O)c2ccccc2C)ccc1Cc1cn(C)c2ccc(NC(=O)OC3CCCC3)cc12 [ZAFIRLUKAST],0.1738
8,Cc1cc(C2CCCCC2)n(O)c(=O)c1 [CICLOPIROX],0.151
9,CC1=C(C(=O)OC(C)C)C(c2cccc([N+](=O)[O-])c2)C(C(=O)OC2CN(C(c3ccccc3)c3ccccc3)C2)=C(N)N1 (centres undefined) [AZELNIDIPINE],0.0227
10,CCCCCCCCCCCCC/C=C/[C@@H](O)[C@H](CO)NC(C)=O,0.1025
11,CCOc1cc([C@@H](CS(C)(=O)=O)N2C(=O)c3cccc(NC(C)=O)c3C2=O)ccc1OC,0.2459
12,NC(=O)CN1CC(c2ccccc2)CC1=O (centres undefined),0.1266
13,NS(=O)(=O)c1cc(C(=O)O)c(NCc2ccco2)cc1Cl [FUROSEMIDE],0.07954
14,Oc1ccc(Cl)cc1Cc1cc(Cl)ccc1O [DICHLOROPHEN],0.1527
15,CC1(C)O[C@@H]2C[C@H]3[C@@H]4CCC5=CC(=O)C=C[C@]5(C)[C@@]4(F)[C@@H](O)C[C@]3(C)[C@]2(C(=O)CO)O1 [TRIAMCINOLONE ACETONIDE],-0.1503
16,COc1ccc(Cc2cnc(N)nc2N)cc1OC [DIAVERIDINE],0.1965
17,CN(C)C(=O)COC(=O)Cc1ccc(OC(=O)c2ccc(NC(=N)N)cc2)cc1 [CAMOSTAT],0.1639
18,C[C@@H]1C[C@H]2[C@@H]3CCC4=CC(=O)C=C[C@]4(C)[C@@]3(F)[C@@H](O)C[C@]2(C)[C@H]1C(=O)CO [DESOXIMETASONE],-0.3284
19,CN[C@H]1C(=O)N[C@@H]2Cc3ccc(cc3)Oc3cc4cc(c3O[C@@H]3O[C@H](C(=O)O)[C@@H](O)[C@H](O)[C@H]3NC(=O)CCCCCCCCC(C)C)Oc3ccc(cc3Cl)[C@@H](O)[C@@H]3NC(=O)[C@H](NC(=O)[C@@H]4NC(=O)[C@@H](NC2=O)c2cc(cc(O)c2Cl)Oc2cc1ccc2O)c1ccc(O)c(c1)-c1c(O[C@H]2O[C@H](CO)[C@@H](O)[C@H](O)[C@@H]2O)cc(O)cc1[C@@H](C(=O)NCCCN(C)C)NC3=O [DALBAVANCIN],0.334

# A second format for two compounds above.
row	Structure (SMILES)	Hit score
16	COc1ccc(Cc2cnc(N)nc2N)cc1OC [DIAVERIDINE]	0.1965
17	CN(C)C(=O)COC(=O)Cc1ccc(OC(=O)c2ccc(NC(=N)N)cc2)cc1 [CAMOSTAT]	0.1639
